Measurements reported in PubChem BioAssay AID743454 (Peter MacCallum Cancer Centre, 2014).
The whole screen tested about 18,000 reagents; this is a random part of them. In the full data, 450 (2.5%) are marked active. 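Single biological run; no consistent viability z cut-off exists, so the class columns, not z-scores, define the calls.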

Screen: 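Knock-downs lowering viability or raising caspase 3/7 activity in vorinostat-treated resistant cells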 (primary screen)
System: human HCT116-VR colon cancer cells, selected for vorinostat resistance
Reagents: siRNA pool against human genes, 40 nM siRNA pool
Duration: vorinostat for 24 h, read-out about 72 h after transfection
Treatment: vorinostat at 2.5 µM final
Measurement: 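Cell viability by CellTiter-Fluor and caspase 3/7 activity by luminescence, each scaled to mock wells per plate, duplicates averaged, then robust z-scored over all plates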
Reading the numbers: viability robust z-score: higher = more viable cells than screen typical; caspase robust z-score: higher = more caspase 3/7 activity than screen typical
Active means: 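Hits are knock-downs in viability class RV1/RV2 or caspase class CA1/CA2, excluding ones that killed cells in the no-drug cell-count arm; hits then retested with single siRNAs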

CREB3L3 (cAMP responsive element binding protein 3 like 3)
- viability hit class: no change
- caspase hit class: no change
- viability robust z-score: -1.17
- caspase robust z-score: 1
- outcome: inactive

FGF22 (fibroblast growth factor 22)
- viability hit class: no change
- caspase hit class: no change
- viability robust z-score: -0.76
- caspase robust z-score: -0.84
- outcome: inactive

FASTKD3 (FASTK mitochondrial RNA regulator 3)
- viability hit class: no change
- caspase hit class: no change
- viability robust z-score: 0.21
- caspase robust z-score: -1.36
- outcome: inactive

MYO15A (myosin XVA)
- viability hit class: no change
- caspase hit class: no change
- viability robust z-score: 0.25
- caspase robust z-score: 0.26
- outcome: inactive

RAB38 (RAB38, member RAS oncogene family)
- viability hit class: no change
- caspase hit class: no change
- viability robust z-score: -1.88
- caspase robust z-score: -0.04
- outcome: inactive

ADCY9 (adenylate cyclase 9)
- viability hit class: no change
- caspase hit class: no change
- viability robust z-score: -0.29
- caspase robust z-score: -0.28
- outcome: inactive

ANKIB1 (ankyrin repeat and IBR domain containing 1)
- viability hit class: no change
- caspase hit class: no change
- viability robust z-score: -0.35
- caspase robust z-score: -1.08
- outcome: inactive

PRKD1 (protein kinase D1)
- viability hit class: no change
- caspase hit class: no change
- viability robust z-score: -0.01
- caspase robust z-score: -1.06
- outcome: inactive

STX4 (syntaxin 4)
- viability hit class: no change
- caspase hit class: no change
- viability robust z-score: 0.15
- caspase robust z-score: 4.16
- outcome: inactive

Next part; the last 2 above are carried over.
PRKD1 (protein kinase D1)
- viability hit class: no change
- caspase hit class: no change
- viability robust z-score: -0.01
- caspase robust z-score: -1.06
- outcome: inactive

STX4 (syntaxin 4)
- viability hit class: no change
- caspase hit class: no change
- viability robust z-score: 0.15
- caspase robust z-score: 4.16
- outcome: inactive

EMC9 (ER membrane protein complex subunit 9)
- viability hit class: no change
- caspase hit class: no change
- viability robust z-score: 1.26
- caspase robust z-score: 1.21
- outcome: inactive

TMEM254 (transmembrane protein 254)
- viability hit class: no change
- caspase hit class: no change
- viability robust z-score: -0.62
- caspase robust z-score: -0.96
- outcome: inactive

PA2G4 (proliferation-associated 2G4)
- viability hit class: no change
- caspase hit class: no change
- viability robust z-score: -0.26
- caspase robust z-score: -0.93
- outcome: inactive

ABCA7 (ATP binding cassette subfamily A member 7)
- viability hit class: no change
- caspase hit class: no change
- viability robust z-score: 1.27
- caspase robust z-score: -0.86
- outcome: inactive

RPL23A (ribosomal protein L23a)
- viability hit class: no change
- caspase hit class: no change
- viability robust z-score: -6.14
- caspase robust z-score: -0.74
- outcome: inactive
